Our source for the binding values is paper PMC12624029.

In test [1] the target is T1, Caspase-8 (mouse (endogenous in HT-22)) (UniProt O89110).
T1 sequence: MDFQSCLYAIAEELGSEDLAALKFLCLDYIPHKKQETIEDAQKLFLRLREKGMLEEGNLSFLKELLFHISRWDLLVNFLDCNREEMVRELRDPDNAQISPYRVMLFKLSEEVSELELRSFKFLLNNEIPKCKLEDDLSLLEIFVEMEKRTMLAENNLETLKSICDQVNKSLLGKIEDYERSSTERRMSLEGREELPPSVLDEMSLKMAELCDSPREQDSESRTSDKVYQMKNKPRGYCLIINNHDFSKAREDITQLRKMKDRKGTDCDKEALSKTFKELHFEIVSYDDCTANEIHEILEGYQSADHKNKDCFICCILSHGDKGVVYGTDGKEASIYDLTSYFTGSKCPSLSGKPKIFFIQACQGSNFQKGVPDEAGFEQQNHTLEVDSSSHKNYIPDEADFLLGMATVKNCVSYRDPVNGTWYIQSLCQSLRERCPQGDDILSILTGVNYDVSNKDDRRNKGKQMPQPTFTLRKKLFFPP
Briefly: co-IP; HT22 cells without TMAO treatment; RIPA lysate, 500 ug total protein with 2 ug rabbit anti-caspase-8 antibody overnight at 4 C, protein A/G magnetic beads, five washes with lysis buffer; immunoblot for CASP8, CASP1, ASC, GAPDH.

The target in test [2] is T1, Caspase-8 (mouse (endogenous in HT-22)). As to the kind of experiment: co-IP; HT22 cells treated with 20 mg/mL TMAO for 16 h; RIPA lysate, 500 ug total protein with 2 ug rabbit anti-caspase-8 antibody overnight at 4 C, protein A/G magnetic beads, five washes with lysis buffer; immunoblot for CASP8, CASP1, ASC, GAPDH. A general note: In western blotting, separated proteins are transferred to a membrane and probed.

For test [3], the target named is T2, Caspase-8 (mouse (endogenous in HT-22)), O89110.
T2 chain: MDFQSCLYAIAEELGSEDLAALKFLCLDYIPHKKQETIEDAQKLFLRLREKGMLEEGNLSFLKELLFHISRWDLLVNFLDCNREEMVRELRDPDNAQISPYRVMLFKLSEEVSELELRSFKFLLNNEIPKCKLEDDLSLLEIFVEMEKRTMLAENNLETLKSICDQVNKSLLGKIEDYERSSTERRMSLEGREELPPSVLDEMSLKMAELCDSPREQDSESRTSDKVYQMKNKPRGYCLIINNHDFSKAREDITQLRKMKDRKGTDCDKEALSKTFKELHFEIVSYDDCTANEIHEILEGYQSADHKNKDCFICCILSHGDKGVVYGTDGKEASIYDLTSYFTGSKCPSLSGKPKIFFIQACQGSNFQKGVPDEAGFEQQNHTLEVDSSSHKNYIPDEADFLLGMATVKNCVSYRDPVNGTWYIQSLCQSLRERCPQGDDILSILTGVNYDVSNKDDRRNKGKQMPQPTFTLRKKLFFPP
The test is described as above. The note with it: remark: other sources report otherwise.

Results are given in words; binding and its absence hold for the method and conditions named. Binding seen in cells or lysates may run through a third protein. Some entries that bind do so weakly or less than the wild type.

B1: Caspase-1 (protein, UniProt P29452 1-402)
chain: MADKILRAKRKQFINSVSIGTINGLLDELLEKRVLNQEEMDKIKLANITAMDKARDLCDHVSKKGPQASQIFITYICNEDCYLAGILELQSAPSAETFVATEDSKGGHPSSSETKEEQNKEDGTFPGLTGTLKFCPLEKAQKLWKENPSEIYPIMNTTTRTRLALIICNTEFQHLSPRVGAQVDLREMKLLLEDLGYTVKVKENLTALEMVKEVKEFAACPEHKTSDSTFLVFMSHGIQEGICGTTYSNEVSDILKVDTIFQMMNTLKCPSLKDKPKVIIIQACRGEKQGVVLLKDSVRDSEEDFLTDAIFEDDGIKKAHIEKDFIAFCSSTPDNVSWRHPVRGSLFIESLIKHMKEYAWSCDLEDIFRKVRFSFEQPEFRLQMPTADRVTLTKRFYLFPGH
With B1, the results for the binding entry in test [1] and in test [2] were “no binding (condition: cells without TMAO stimulation)” and “binds”, respectively.

B2: ASC, Q9EPB4 1-193 (protein)
chain: MGRARDAILDALENLSGDELKKFKMKLLTVQLREGYGRIPRGALLQMDAIDLTDKLVSYYLESYGLELTMTVLRDMGLQELAEQLQTTKEESGAVAAAASVPAQSTARTGHFVDQHRQALIARVTEVDGVLDALHGSVLTEGQYQAVRAETTSQDKMRKLFSFVPSWNLTCKDSLLQALKEIHPYLVMDLEQS
For the molecule B2, the binding result in test [3] is on record as “binds”.
